Experimental data from the supplement of paper PMC4604168 (melanoma cell lines).
The other results are listed elsewhere or left out. Many values rest on one well or one pass, so single values are uncertain.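 Imaging used 1,536-well plates; nuclei positive for cleaved PARP by antibody were divided by total DNA-stained nuclei to yield the apoptosis fraction. Doses for screening kept most cells viable, and cell lines differ markedly in resting and induced cleaved-PARP levels.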

Tests used:
Test in all cases: cleaved PARP positive nuclei fraction relative to DMSO control; melanoma cells; higher = more apoptosis
Settings in all cases: library dose: low library concentration; 72 h
[1] = test system: WM115
[2] = test system: WM1716
[3] = test system: WM1745
[4] = test system: WM3526
[5] = test system: WM3619
[6] = test system: WM451Lu

SMILES	cleaved PARP positive nuclei fraction [1]	cleaved PARP positive nuclei fraction [2]	cleaved PARP positive nuclei fraction [3]	cleaved PARP positive nuclei fraction [4]	cleaved PARP positive nuclei fraction [5]	cleaved PARP positive nuclei fraction [6]
Clc1ccc(Nc2nnc(Cc3ccncc3)c3ccccc23)cc1 [vatalanib] + Cn1nnc2c(C(N)=O)ncn2c1=O [temozolomide] (first compound 2 µM, partner dose 2 µM)	84.5%	70.7%	108%	22.8%	126%	64.5%
O=C(Nc1cccc(Cl)c1)Nc1ncc(CCNc2ncnc3ccsc23)s1 + O=C(O)C(=O)Nc1sc2c(c1C(=O)O)CCNC2 [TCS401] (first compound 0.0008 µM, partner dose 1.66667 µM)	394%	103%	113%	74.9%	85.5%	92.4%
O=C(Nc1cccc(Cl)c1)Nc1ncc(CCNc2ncnc3ccsc23)s1 + Oc1cc(-c2nc(-c3ccccc3)[nH]c2-c2ccncc2)ccc1Cl [L779450] (first compound 0.0008 µM, partner dose 0.2 µM)	146%	54.4%	112%	52.1%	186%	74.4%
C[C@]1(c2nc3c(C(N)=O)cccc3[nH]2)CCCN1 [Veliparib] + CN(NC(=O)CC(=O)NN(C)C(=S)c1ccccc1)C(=S)c1ccccc1 [STA4783] (first compound 1.4 µM, partner dose 0.006 µM)	88.5%	172%	272%	68.7%	258%	242%
C=CCNC1=C2C[C@@H](C)C[C@H](OC)[C@H](O)[C@@H](C)/C=C(\C)[C@H](OC(N)=O)[C@@H](OC)/C=C\C=C(/C)C(=O)NC(=CC1=O)C2=O [Tanespimycin] + COc1cc2ncnc(Nc3ccc(Oc4ccccc4)cc3)c2cc1OC [SrcI1] (first compound 0.002 µM, partner dose 2 µM)	114%	20.9%	102%	82.3%	97.6%	49.3%
C[C@@H]1CCN(C(=O)CC#N)C[C@@H]1N(C)c1ncnc2[nH]ccc12 + O=C(O)c1ccc(-c2c[nH]c3ncc(-c4ccccc4)cc23)cc1C1CCCC1 [GSK650394] (first compound 1 µM, partner dose 0.16 µM)	98%	76.1%	90.6%	64.8%	112%	105%
CO[C@@H]1[C@H](N(C)C(=O)c2ccccc2)C[C@H]2O[C@]1(C)n1c3ccccc3c3c4c(c5c6ccccc6n2c5c31)C(=O)NC4 [Midostaurin] + C[C@@H]1CCN(C(=O)CC#N)C[C@@H]1N(C)c1ncnc2[nH]ccc12 [CP690550] (first compound 0.08 µM, partner dose 1 µM)	130%	115%	113%	122%	129%	131%
Cc1nc(Nc2ncc(C(=O)Nc3c(C)cccc3Cl)s2)cc(N2CCN(CCO)CC2)n1 [dasatanib] + COc1cc2c(Oc3ccc4[nH]c(C)cc4c3F)ncnc2cc1OCCCN1CCCC1 [cediranib] (first compound 0.004 µM, partner dose 0.4 µM)	98.3%	440%	128%	143%	101%	176%
OCc1c[nH]c2ccccc12 [Indole-3-carbinol] + Cc1ccc(NC(=O)c2cccc(N(C)C)c2)cc1NC(=O)c1ccc(O)cc1 [ZM336372] (first compound 0.8 µM, partner dose 2 µM)	44.8%	192%	164%	226%	115%	170%
Cn1nnc2c(C(N)=O)ncn2c1=O [temozolomide] + COC(=O)c1sccc1S(=O)(=O)Nc1ccc(Nc2ccccc2)cc1OC [GSK0660] (first compound 2 µM, partner dose 1 µM)	62.7%	65.9%	136%	65.6%	89.5%	129%
C#Cc1cccc(Nc2ncnc3cc(OCCOC)c(OCCOC)cc23)c1 [erlotinib] + Cn1cncc1[C@@](N)(c1ccc(Cl)cc1)c1ccc2c(c1)c(-c1cccc(Cl)c1)cc(=O)n2C [tipifarnib] (first compound 0.8 µM, partner dose 0.01 µM)	81.8%	125%	110%	65.5%	125%	120%
COc1cc(Nc2ncc(F)c(Nc3ccc4c(n3)NC(=O)C(C)(C)O4)n2)cc(OC)c1OC [Tamatinib] + COC(=O)c1sccc1S(=O)(=O)Nc1ccc(Nc2ccccc2)cc1OC [GSK0660] (first compound 0.4 µM, partner dose 1 µM)	38.6%	118%	146%	66.5%	86.7%	65.8%
Cc1nc(Nc2ncc(C(=O)Nc3c(C)cccc3Cl)s2)cc(N2CCN(CCO)CC2)n1 [dasatanib] + CN(NC(=O)CC(=O)NN(C)C(=S)c1ccccc1)C(=S)c1ccccc1 [STA4783] (first compound 0.004 µM, partner dose 0.006 µM)	250%	192%	246%	132%	159%	242%
